Results are given in words; binding and its absence hold for the method and conditions named. Some entries that bind do so weakly or less than the wild type. For part of these data: Tags and fused reporters may be left off the sequences shown.
B1: AD-EIN3 (ETHYLENE … 3) (protein, UniProt O24606 1-628)
chain: MMFNEMGMCGNMDFFSSGSLGEVDFCPVPQAEPDSIVEDDYTDDEIDVDELERRMWRDKMRLKRLKEQDKGKEGVDAAKQRQSQEQARRKKMSRAQDGILKYMLKMMEVCKAQGFVYGIIPENGKPVTGASDNLREWWKDKVRFDRNGPAAITKYQAENNIPGIHEGNNPIGPTPHTLQELQDTTLGSLLSALMQHCDPPQRRFPLEKGVPPPWWPNGKEDWWPQLGLPKDQGPAPYKKPHDLKKAWKVGVLTAVIKHMFPDIAKIRKLVRQSKCLQDKMTAKESATWLAIINQEESLARELYPESCPPLSLSGGSCSLLMNDCSQYDVEGFEKESHYEVEELKPEKVMNSSNFGMVAKMHDFPVKEEVPAGNSEFMRKRKPNRDLNTIMDRTVFTCENLGCAHSEISRGFLDRNSRDNHQLACPHRDSRLPYGAAPSRFHVNEVKPVVGFPQPRPVNSVAQPIDLTGIVPEDGQKMISELMSMYDRNVQSNQTSMVMENQSVSLLQPTVHNHQEHLQFPGNMVEGSFFEDLNIPNRANNNNSSNNQTFFQGNNNNNNVFKFDTADHNNFEAAHNNNNNSSGNRFQLVFDSTPFDMASFDYRDDMSMPGVVGTMDGMQQKQQDVSIWF
B2: FHY3 (FAR-RED ELONGATED HYPOCOTYL 3), third protein expressed from pBridge-PIF5-FHY3 (protein, UniProt Q9LIE5 1-839)
chain: MDIDLRLHSGDLCKGDDEDRGLDNVLHNEEDMDIGKIEDVSVEVNTDDSVGMGVPTGELVEYTEGMNLEPLNGMEFESHGEAYSFYQEYSRAMGFNTAIQNSRRSKTTREFIDAKFACSRYGTKREYDKSFNRPRARQSKQDPENMAGRRTCAKTDCKASMHVKRRPDGKWVIHSFVREHNHELLPAQAVSEQTRKIYAAMAKQFAEYKTVISLKSDSKSSFEKGRTLSVETGDFKILLDFLSRMQSLNSNFFYAVDLGDDQRVKNVFWVDAKSRHNYGSFCDVVSLDTTYVRNKYKMPLAIFVGVNQHYQYMVLGCALISDESAATYSWLMETWLRAIGGQAPKVLITELDVVMNSIVPEIFPNTRHCLFLWHVLMKVSENLGQVVKQHDNFMPKFEKCIYKSGKDEDFARKWYKNLARFGLKDDQWMISLYEDRKKWAPTYMTDVLLAGMSTSQRADSINAFFDKYMHKKTSVQEFVKVYDTVLQDRCEEEAKADSEMWNKQPAMKSPSPFEKSVSEVYTPAVFKKFQIEVLGAIACSPREENRDATCSTFRVQDFENNQDFMVTWNQTKAEVSCICRLFEYKGYLCRHTLNVLQCCHLSSIPSQYILKRWTKDAKSRHFSGEPQQLQTRLLRYNDLCERALKLNEEASLSQESYNIAFLAIEGAIGNCAGINTSGRSLPDVVTSPTQGLISVEEDNHSRSAGKTSKKKNPTKKRKVNPEQDVMPVAAPESLQQMDKLSPRTVGIESYYGTQQSVQGMVQLNLMGPTRDNFYGNQQTMQGLRQLNSIAPSYDSYYGPQQGIHGQGVDFFRPANFSYDIRDDPNVRTTQLHEDASRHS

Tests used:
[1] = target: T1, pBridge-PIF5 (PHYTOCHROME-… FACTOR 5) (Arabidopsis thaliana) (UniProt Q84LH8); assay: yeast three-hybrid; AD-EIN3 (pGADT7) with pBridge-PIF5, without FHY3; yeast AH109; growth on SD/-Trp/-Leu/-Met/-His
T1 sequence: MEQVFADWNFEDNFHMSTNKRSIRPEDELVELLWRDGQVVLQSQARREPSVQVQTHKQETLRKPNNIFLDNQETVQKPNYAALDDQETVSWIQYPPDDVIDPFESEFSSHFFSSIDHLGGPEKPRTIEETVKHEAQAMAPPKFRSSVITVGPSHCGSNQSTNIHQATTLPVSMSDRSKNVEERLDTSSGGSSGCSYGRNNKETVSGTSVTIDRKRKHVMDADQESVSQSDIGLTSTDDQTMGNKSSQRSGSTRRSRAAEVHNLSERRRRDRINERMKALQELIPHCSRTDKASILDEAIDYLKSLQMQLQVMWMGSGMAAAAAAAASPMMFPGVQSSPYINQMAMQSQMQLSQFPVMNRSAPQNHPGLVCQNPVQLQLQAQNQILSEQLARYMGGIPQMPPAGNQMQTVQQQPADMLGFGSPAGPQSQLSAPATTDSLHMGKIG

[2] = target: T2, FHY3 (FAR-RED ELONGATED HYPOCOTYL 3), third protein expressed from pBridge-PIF5-FHY3 (Arabidopsis thaliana) (UniProt Q9LIE5); assay: yeast three-hybrid; AD-EIN3 (pGADT7) with pBridge-PIF5-FHY3 (FHY3 co-expressed); yeast AH109; growth on SD/-Trp/-Leu/-Met/-His
T2 sequence: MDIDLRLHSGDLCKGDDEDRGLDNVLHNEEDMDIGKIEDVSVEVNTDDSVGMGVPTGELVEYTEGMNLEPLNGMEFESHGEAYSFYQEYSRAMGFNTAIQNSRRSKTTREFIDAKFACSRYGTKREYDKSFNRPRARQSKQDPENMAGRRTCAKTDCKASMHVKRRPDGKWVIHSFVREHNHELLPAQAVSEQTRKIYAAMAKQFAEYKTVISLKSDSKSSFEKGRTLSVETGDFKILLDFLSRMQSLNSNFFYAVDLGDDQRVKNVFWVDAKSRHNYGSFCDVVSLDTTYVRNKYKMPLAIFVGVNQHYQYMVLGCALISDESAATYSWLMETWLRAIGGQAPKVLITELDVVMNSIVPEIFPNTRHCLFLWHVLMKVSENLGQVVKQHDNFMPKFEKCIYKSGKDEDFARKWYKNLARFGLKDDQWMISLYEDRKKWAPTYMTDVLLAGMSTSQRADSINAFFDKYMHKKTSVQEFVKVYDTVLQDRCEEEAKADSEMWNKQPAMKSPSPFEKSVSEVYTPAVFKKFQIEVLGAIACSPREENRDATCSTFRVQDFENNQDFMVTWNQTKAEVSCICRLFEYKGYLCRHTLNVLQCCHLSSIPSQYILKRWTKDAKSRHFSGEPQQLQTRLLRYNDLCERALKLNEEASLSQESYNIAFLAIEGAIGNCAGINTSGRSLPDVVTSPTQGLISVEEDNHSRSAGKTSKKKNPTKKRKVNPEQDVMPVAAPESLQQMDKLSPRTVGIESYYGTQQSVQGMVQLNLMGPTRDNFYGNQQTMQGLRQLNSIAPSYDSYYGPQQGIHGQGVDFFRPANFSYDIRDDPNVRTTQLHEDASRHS

[3] = target: T1, pBridge-PIF5 (PHYTOCHROME-… FACTOR 5) (Arabidopsis thaliana); assay: as above

Binder	binding [1]	binding [2]	binding [3]
B1	binds weakly	binds	–
B2	–	–	binds

— publication PMC8584998, “Arabidopsis FHY3 and FAR1 Function in Age Gating of Leaf Senescence”
